Test results from patent publication US20080118978A1 (published 2008).
No constants are given. Whether binding was seen depends on the method and setting. Some results given as binding are weak or reduced against the parent protein; the word gives no strength.

The chains behind the UniProt entries cited, without tags or fusion partners. Where a name states a change or a piece, a line headed by the entry shows the natural chain unless it says otherwise.
UniProt P08473: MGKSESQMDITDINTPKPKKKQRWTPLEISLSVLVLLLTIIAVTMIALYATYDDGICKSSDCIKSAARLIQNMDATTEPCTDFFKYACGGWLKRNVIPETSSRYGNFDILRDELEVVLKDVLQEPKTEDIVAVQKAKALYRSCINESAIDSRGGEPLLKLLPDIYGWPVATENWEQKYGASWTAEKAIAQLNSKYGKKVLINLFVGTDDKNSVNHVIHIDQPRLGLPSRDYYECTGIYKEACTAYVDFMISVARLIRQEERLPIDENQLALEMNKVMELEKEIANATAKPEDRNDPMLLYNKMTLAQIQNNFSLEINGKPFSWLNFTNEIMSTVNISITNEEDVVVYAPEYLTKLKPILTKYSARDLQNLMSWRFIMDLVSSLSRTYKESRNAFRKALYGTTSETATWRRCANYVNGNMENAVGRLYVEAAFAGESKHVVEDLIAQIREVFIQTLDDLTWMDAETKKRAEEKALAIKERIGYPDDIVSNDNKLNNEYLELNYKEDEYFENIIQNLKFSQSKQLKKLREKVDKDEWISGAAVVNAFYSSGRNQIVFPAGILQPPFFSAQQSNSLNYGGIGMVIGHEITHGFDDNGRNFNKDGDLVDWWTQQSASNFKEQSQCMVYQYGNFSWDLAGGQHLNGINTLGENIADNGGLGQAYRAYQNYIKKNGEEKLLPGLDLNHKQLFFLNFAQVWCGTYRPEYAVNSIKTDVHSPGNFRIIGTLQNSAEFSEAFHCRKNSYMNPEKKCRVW

Target: T1, CD10 (human, UniProt P08473 2-750)
T1 construct: Endogenous CD10 of human cell lines: on Raji, RTX/Raji and Ramos cells in flow cytometry; In the ELISA it was a Triton X-100-dissolved membrane fraction of SBC-3 cells coated on the plate; also called CALLA; neutral endopeptidase
Assay: flow cytometry (mean fluorescence intensity) on Ramos cells from excised xenografts

B1: mouse anti-CD10 antibody NL-1 (antibody, V domains shown)
VH: DVQLVESGGGLVQPGGSRKLSCAASGFTFSSFGMHWVRQAPEKGLEWVAYISGGSYTIYYADTVKGRFTISRDNPKNTLFLQMTSLRSEDTAMYYCASSYGNFWYFDVWGAGTTVTVSS
VL: EIVLTQSPALMAASPGEKVTIACSVSSSISSSNLHWYQQKSETSPKPWIYGTSNLASGVPVRFSGSGSGTSYFLTISSMEAEDAATYYCQQWSSYPLTFGGGTKLEIK
notes: Mouse hybridoma antibody; H chain cloned with a mouse Cgamma2a probe and L chain with a Ckappa probe; also called anti-CD10 mouse antibody NL-1
  binding: binds
